Experimental data: paper PMC8274477
Results are given in words; binding and its absence hold for the method and conditions named. Some results given as binding are weak or reduced against the parent protein; the word gives no strength.

By UniProt entry, the sequences of proteins in these tests, tags left out.
UniProt P47989: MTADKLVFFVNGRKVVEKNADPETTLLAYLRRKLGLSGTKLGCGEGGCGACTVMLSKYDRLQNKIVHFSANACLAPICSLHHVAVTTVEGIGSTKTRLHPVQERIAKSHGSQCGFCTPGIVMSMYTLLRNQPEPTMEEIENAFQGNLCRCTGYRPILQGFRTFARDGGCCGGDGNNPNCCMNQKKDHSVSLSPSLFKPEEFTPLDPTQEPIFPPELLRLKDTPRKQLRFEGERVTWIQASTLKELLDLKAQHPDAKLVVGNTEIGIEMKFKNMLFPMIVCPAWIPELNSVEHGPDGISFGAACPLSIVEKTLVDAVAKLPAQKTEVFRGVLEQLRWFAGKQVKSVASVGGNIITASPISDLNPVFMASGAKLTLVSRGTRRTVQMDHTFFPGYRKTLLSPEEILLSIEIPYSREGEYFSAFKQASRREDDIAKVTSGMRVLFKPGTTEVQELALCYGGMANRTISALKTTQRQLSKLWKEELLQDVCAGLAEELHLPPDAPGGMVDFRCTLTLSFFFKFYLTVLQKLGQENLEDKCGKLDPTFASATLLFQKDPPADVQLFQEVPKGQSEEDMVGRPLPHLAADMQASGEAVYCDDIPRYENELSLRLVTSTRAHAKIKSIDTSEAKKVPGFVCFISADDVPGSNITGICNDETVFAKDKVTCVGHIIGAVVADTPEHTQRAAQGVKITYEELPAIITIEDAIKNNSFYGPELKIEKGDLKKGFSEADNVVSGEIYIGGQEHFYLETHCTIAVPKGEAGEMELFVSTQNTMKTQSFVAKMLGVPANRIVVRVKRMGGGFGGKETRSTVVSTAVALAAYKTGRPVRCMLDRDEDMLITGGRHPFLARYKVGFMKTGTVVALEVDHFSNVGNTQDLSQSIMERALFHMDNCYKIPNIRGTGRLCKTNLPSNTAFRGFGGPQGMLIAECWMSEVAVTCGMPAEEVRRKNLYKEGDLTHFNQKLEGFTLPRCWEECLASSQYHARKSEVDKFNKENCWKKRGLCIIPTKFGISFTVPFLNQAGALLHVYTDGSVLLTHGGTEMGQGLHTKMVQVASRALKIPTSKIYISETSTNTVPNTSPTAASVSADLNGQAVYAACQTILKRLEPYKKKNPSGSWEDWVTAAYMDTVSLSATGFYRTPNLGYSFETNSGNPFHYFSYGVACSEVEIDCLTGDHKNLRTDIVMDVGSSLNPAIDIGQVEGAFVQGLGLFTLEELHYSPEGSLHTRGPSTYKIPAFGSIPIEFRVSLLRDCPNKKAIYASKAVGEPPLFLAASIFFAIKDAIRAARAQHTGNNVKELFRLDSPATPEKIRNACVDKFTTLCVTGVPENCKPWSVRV

Legend:
Experiment in all cases: peptide or protein array; HuProt human proteome microarray; 5 ug/5 ml biotin-labelled LUBAC or OTULIN in solution, 1 h at room temperature; Cy5-streptavidin, scanned at 635 nm; BSA as negative control; hits: Z-score >= 3 and I_(Mean_Ratio) >= 1.4; both purified
[1] = target: T1, ALKBH3 (human) (UniProt Q96Q83)
T1 sequence: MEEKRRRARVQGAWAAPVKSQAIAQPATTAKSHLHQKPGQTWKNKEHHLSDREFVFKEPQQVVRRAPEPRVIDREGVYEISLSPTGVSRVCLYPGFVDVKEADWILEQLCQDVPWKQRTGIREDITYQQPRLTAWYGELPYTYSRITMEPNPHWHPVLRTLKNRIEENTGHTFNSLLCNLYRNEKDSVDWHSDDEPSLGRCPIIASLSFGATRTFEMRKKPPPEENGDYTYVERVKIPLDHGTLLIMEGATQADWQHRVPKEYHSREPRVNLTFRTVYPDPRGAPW

[2] = target: T2, C1orf94 (human) (UniProt Q6P1W5)
T2 sequence: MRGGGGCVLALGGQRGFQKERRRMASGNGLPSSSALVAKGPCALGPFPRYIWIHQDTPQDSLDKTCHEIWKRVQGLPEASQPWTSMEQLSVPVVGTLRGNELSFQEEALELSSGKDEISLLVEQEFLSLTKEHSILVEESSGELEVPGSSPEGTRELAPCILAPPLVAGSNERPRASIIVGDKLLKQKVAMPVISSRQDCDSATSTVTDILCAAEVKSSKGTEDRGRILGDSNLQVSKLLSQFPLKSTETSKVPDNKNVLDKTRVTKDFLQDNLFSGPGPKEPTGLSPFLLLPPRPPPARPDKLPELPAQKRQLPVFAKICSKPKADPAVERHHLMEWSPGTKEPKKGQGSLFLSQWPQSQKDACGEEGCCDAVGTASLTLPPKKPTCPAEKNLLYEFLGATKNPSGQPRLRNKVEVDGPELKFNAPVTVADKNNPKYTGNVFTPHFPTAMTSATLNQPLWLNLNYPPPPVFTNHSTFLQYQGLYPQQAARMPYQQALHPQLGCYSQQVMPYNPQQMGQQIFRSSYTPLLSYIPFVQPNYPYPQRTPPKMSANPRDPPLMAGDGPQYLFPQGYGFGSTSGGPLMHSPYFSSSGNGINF

[3] = target: T3, CCNB1IP1 (human) (UniProt Q9NPC3)
T3 sequence: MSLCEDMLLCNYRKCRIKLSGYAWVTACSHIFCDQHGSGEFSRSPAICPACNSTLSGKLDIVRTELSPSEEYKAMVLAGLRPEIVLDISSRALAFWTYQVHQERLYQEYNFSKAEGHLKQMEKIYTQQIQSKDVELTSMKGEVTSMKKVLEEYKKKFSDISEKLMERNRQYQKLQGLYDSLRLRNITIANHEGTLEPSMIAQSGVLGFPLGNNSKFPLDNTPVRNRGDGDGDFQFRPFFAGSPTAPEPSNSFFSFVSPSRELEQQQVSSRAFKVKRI

[4] = target: FKBP1A (human) (UniProt P62942)
[5] = target: T4, SMPD1 (human) (UniProt P17405)
T4 sequence: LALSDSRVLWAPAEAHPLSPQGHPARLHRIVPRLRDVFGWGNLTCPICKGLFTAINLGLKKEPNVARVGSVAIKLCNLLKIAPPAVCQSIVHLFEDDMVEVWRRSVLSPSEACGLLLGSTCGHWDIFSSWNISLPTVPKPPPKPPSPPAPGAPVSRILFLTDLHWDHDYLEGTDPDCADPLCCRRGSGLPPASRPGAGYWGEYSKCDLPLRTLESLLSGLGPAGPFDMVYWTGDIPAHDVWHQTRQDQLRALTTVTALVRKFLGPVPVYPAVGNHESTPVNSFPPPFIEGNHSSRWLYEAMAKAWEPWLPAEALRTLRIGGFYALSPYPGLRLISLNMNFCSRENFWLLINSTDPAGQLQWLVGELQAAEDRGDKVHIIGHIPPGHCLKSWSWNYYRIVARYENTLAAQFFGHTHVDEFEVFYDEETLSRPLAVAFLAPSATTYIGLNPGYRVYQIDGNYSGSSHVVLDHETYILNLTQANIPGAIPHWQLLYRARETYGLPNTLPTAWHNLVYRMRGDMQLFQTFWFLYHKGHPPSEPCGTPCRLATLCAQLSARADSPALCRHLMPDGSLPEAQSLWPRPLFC

[6] = target: T5, WBP2NL (human) (UniProt Q6ICG8)
T5 sequence: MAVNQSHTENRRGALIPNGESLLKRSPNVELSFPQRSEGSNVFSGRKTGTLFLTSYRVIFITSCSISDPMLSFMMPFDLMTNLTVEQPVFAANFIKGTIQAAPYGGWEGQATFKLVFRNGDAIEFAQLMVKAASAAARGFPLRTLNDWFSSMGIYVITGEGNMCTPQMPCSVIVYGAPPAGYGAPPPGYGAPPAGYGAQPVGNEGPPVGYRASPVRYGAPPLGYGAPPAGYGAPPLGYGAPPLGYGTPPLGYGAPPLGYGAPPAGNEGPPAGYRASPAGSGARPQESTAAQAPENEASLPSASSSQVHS

[7] = target: XDH (human) (UniProt P47989)

Measured: binding

linear ubiquitin chain assembly complex (LUBAC), purified as HIS-tagged HOIP with the subunit HOIL-1, biotin-labelled (from UniProt Q96EP0 1-1072; Q9BYM8 1-510)
binds: all assays above
